Results from the supplement of paper PMC8728848.
Some of the results follow.

Legend:
Test in all cases: glycan array binding signal (z-score within array); higher = stronger binding
Details in all cases: glycan notation: IUPAC condensed, linker removed
GlcNAc(b1-4)GlcNAc = target: GlcNAc(b1-4)GlcNAc
Procedure, shortened: (§1)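 Arrays were curated from the Consortium for Functional Glycomics database, 3228 in total, and kept only where the protein sequence was available. Binding is expressed as a within-array Z-score. This score was averaged across arrays of the same protein sequence at different concentrations or buffers and across linkers, and negative values can be read as non-binding.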

[1] = target: GlcNAc(b1-4)GlcNAc(b1-4)GlcNAc
Procedure, shortened: as §1

[2] = target: GlcNAc(b1-4)GlcNAc(b1-4)GlcNAc(b1-4)GlcNAc(b1-4)GlcNAc
Procedure, shortened: as §1

[3] = target: GlcNAc(b1-4)GlcNAc(b1-4)GlcNAc(b1-4)GlcNAc(b1-4)GlcNAc(b1-4)GlcNAc
Procedure, shortened: as §1

[4] = target: GlcNAc(b1-4)[GlcNAc(b1-6)]GalNAc
Procedure, shortened: as §1

[5] = target: GlcNAc(b1-6)Gal(b1-4)GlcNAc
Procedure, shortened: as §1

GlcNAc(b1-6)GalNAc = target: GlcNAc(b1-6)GalNAc
Procedure, shortened: as §1

GlcNAc3Prop(b1-4)GlcNAc = target: GlcNAc3Prop(b1-4)GlcNAc
Procedure, shortened: as §1

[6] = target: GlcNAc6S(b1-3)Gal(b1-4)GlcNAc
Procedure, shortened: as §1

Kdn(a2-3)Gal(b1-3)GalNAc = target: Kdn(a2-3)Gal(b1-3)GalNAc
Procedure, shortened: as §1

Kdn(a2-3)Gal(b1-3)GlcNAc = target: Kdn(a2-3)Gal(b1-3)GlcNAc
Procedure, shortened: as §1

Kdn(a2-3)Gal(b1-4)Glc = target: Kdn(a2-3)Gal(b1-4)Glc
Procedure, shortened: as §1

Kdn(a2-3)Gal(b1-4)GlcNAc = target: Kdn(a2-3)Gal(b1-4)GlcNAc
Procedure, shortened: as §1

[7] = target: Kdn(a2-3)Gal(b1-4)[Fuc(a1-3)]GlcNAc
Procedure, shortened: as §1

Kdn(a2-6)Gal(b1-4)GlcNAc = target: Kdn(a2-6)Gal(b1-4)GlcNAc
Procedure, shortened: as §1

[8] = target: Man(a1-2)Man(a1-2)Man(a1-3)Man
Procedure, shortened: as §1

[9] = target: Man(a1-2)Man(a1-2)Man(a1-6)[Man(a1-3)]Man
Procedure, shortened: as §1

Man(a1-2)Man(a1-3)Man = target: Man(a1-2)Man(a1-3)Man
Procedure, shortened: as §1

[10] = target: Man(a1-2)Man(a1-3)[Man(a1-2)Man(a1-6)]Man
Procedure, shortened: as §1

[11] = target: Man(a1-2)Man(a1-3)[Man(a1-2)Man(a1-6)]Man(a1-6)[Man(a1-2)Man(a1-2)Man(a1-3)]Man
Procedure, shortened: as §1

[12] = target: Man(a1-2)Man(a1-3)[Man(a1-2)Man(a1-6)]Man(a1-6)[Man(a1-2)Man(a1-2)Man(a1-3)]Man(b1-4)GlcNAc(b1-4)GlcNAc
Procedure, shortened: as §1

[13] = target: Man(a1-2)Man(a1-3)[Man(a1-6)]Man(a1-6)[Man(a1-2)Man(a1-3)]Man(b1-4)GlcNAc(b1-4)GlcNAc
Procedure, shortened: as §1

[14] = target: Man(a1-2)Man(a1-6)[Man(a1-3)]Man(a1-6)[Man(a1-2)Man(a1-2)Man(a1-3)]Man
Procedure, shortened: as §1

[15] = target: Man(a1-2)Man(a1-6)[Man(a1-3)]Man(a1-6)[Man(a1-2)Man(a1-2)Man(a1-3)]Man(b1-4)GlcNAc(b1-4)GlcNAc
Procedure, shortened: as §1

Man(a1-3)[Man(a1-6)]Man = target: Man(a1-3)[Man(a1-6)]Man
Procedure, shortened: as §1

[16] = target: Man(a1-3)[Man(a1-6)]Man(a1-6)[Man(a1-2)Man(a1-3)]Man(b1-4)GlcNAc(b1-4)GlcNAc
Procedure, shortened: as §1

[17] = target: Man(a1-3)[Man(a1-6)]Man(a1-6)[Man(a1-3)]Man
Procedure, shortened: as §1

[18] = target: Man(a1-3)[Man(a1-6)]Man(a1-6)[Man(a1-3)]Man(b1-4)GlcNAc(b1-4)GlcNAc
Procedure, shortened: as §1

[19] = target: Man(a1-3)[Man(a1-6)]Man(b1-4)GlcNAc(b1-4)GlcNAc
Procedure, shortened: as §1

Man(a1-6)Man = target: Man(a1-6)Man
Procedure, shortened: as §1

Man(b1-4)GlcNAc = target: Man(b1-4)GlcNAc
Procedure, shortened: as §1

Neu5Ac(a2-3)Gal = target: Neu5Ac(a2-3)Gal
Procedure, shortened: as §1

[20] = target: Neu5Ac(a2-3)Gal(b1-3)GalNAc
Procedure, shortened: as §1

[21] = target: Neu5Ac(a2-3)Gal(b1-3)GalNAc(b1-3)Gal(a1-4)Gal(b1-4)Glc
Procedure, shortened: as §1

[22] = target: Neu5Ac(a2-3)Gal(b1-3)GalNAc(b1-3)Gal(b1-4)GlcNAc
Procedure, shortened: as §1

[23] = target: Neu5Ac(a2-3)Gal(b1-3)GalNAc(b1-4)[Neu5Ac(a2-3)]Gal(b1-4)Glc
Procedure, shortened: as §1

[24] = target: Neu5Ac(a2-3)Gal(b1-3)GalNAc6S
Procedure, shortened: as §1

[25] = target: Neu5Ac(a2-3)Gal(b1-3)GlcNAc
Procedure, shortened: as §1

[26] = target: Neu5Ac(a2-3)Gal(b1-3)GlcNAc(b1-3)Gal(b1-3)GlcNAc
Procedure, shortened: as §1

[27] = target: Neu5Ac(a2-3)Gal(b1-3)GlcNAc6S
Procedure, shortened: as §1

[28] = target: Neu5Ac(a2-3)Gal(b1-3)[Fuc(a1-4)]GlcNAc
Procedure, shortened: as §1

[29] = target: Neu5Ac(a2-3)Gal(b1-3)[Fuc(a1-4)]GlcNAc(b1-3)Gal(b1-3)[Fuc(a1-4)]GlcNAc
Procedure, shortened: as §1

[30] = target: Neu5Ac(a2-3)Gal(b1-3)[Fuc(a1-4)]GlcNAc(b1-3)Gal(b1-4)[Fuc(a1-3)]GlcNAc
Procedure, shortened: as §1

[31] = target: Neu5Ac(a2-3)Gal(b1-3)[Neu5Ac(a2-3)Gal(b1-4)]GlcNAc
Procedure, shortened: as §1

[32] = target: Neu5Ac(a2-3)Gal(b1-3)[Neu5Ac(a2-6)]GalNAc
Procedure, shortened: as §1

Neu5Ac(a2-3)Gal(b1-4)Glc = target: Neu5Ac(a2-3)Gal(b1-4)Glc
Procedure, shortened: as §1

[33] = target: Neu5Ac(a2-3)Gal(b1-4)GlcNAc
Procedure, shortened: as §1

[34] = target: Neu5Ac(a2-3)Gal(b1-4)GlcNAc(b1-2)Man(a1-3)[GlcNAc(b1-2)Man(b1-4)GlcNAc(b1-2)Man(a1-6)]Man(b1-4)GlcNAc(b1-4)GlcNAc
Procedure, shortened: as §1

[35] = target: Neu5Ac(a2-3)Gal(b1-4)GlcNAc(b1-2)Man(a1-3)[Neu5Ac(a2-6)Gal(b1-4)GlcNAc(b1-2)Man(a1-6)]Man(b1-4)GlcNAc(b1-4)GlcNAc
Procedure, shortened: as §1

[36] = target: Neu5Ac(a2-3)Gal(b1-4)GlcNAc(b1-3)Gal(b1-3)GlcNAc
Procedure, shortened: as §1

[37] = target: Neu5Ac(a2-3)Gal(b1-4)GlcNAc(b1-3)Gal(b1-4)GlcNAc
Procedure, shortened: as §1

[38] = target: Neu5Ac(a2-3)Gal(b1-4)GlcNAc(b1-3)Gal(b1-4)GlcNAc(b1-3)Gal(b1-4)GlcNAc
Procedure, shortened: as §1

[39] = target: Neu5Ac(a2-3)Gal(b1-4)GlcNAc(b1-3)Gal(b1-4)[Fuc(a1-3)]GlcNAc
Procedure, shortened: as §1

[40] = target: Neu5Ac(a2-3)Gal(b1-4)GlcNAc(b1-3)GalNAc
Procedure, shortened: as §1

[41] = target: Neu5Ac(a2-3)Gal(b1-4)GlcNAc(b1-6)[Gal(b1-3)]GalNAc
Procedure, shortened: as §1

[42] = target: Neu5Ac(a2-3)Gal(b1-4)GlcNAc(b1-6)[Neu5Ac(a2-3)Gal(b1-3)]GalNAc
Procedure, shortened: as §1

[43] = target: Neu5Ac(a2-3)Gal(b1-4)GlcNAc6S
Procedure, shortened: as §1

B1: Spy 2007 (Streptococcus pyogenes), Q99XV3 (protein)
chain: MKKGFFLMAMVVSLVMIAGCDKSANPKQPTQGMSVVTSFYPMYAMTKEVSGDLNDVRMIQSGAGIHSFEPSVNDVAAIYDADLFVYHSHTLEAWARDLDPNLKKSKVDVFEASKPLTLDRVKGLEDMEVTQGIDPATLYDPHTWTDPVLAGEEAVNIAKELGRLDPKHKDSYTKNAKAFKKEAEQLTEEYTQKFKKVRSKTFVTQHTAFSYLAKRFGLKQLGISGISPEQEPSPRQLKEIQDFVKEYNVKTIFAEDNVNPKIAHAIAKSTGAKVKTLSPLEAAPSGNKTYLENLRANLEVLYQQLK
- glycan array binding signal (z-score) (GlcNAc(b1-4)GlcNAc): -0.446
- glycan array binding signal (z-score) [1]: -0.594
- glycan array binding signal (z-score) [2]: 4.65
- glycan array binding signal (z-score) [3]: 0.758
- glycan array binding signal (z-score) [4]: -0.596
- glycan array binding signal (z-score) [5]: -0.144
- glycan array binding signal (z-score) (GlcNAc(b1-6)GalNAc): -0.525
- glycan array binding signal (z-score) (GlcNAc3Prop(b1-4)GlcNAc): -0.595
- glycan array binding signal (z-score) [6]: -0.759
- glycan array binding signal (z-score) (Kdn(a2-3)Gal(b1-3)GalNAc): -0.506
- glycan array binding signal (z-score) (Kdn(a2-3)Gal(b1-3)GlcNAc): -0.448
- glycan array binding signal (z-score) (Kdn(a2-3)Gal(b1-4)Glc): -1.04
- glycan array binding signal (z-score) (Kdn(a2-3)Gal(b1-4)GlcNAc): -0.442
- glycan array binding signal (z-score) [7]: 0.055
- glycan array binding signal (z-score) (Kdn(a2-6)Gal(b1-4)GlcNAc): -0.715
- glycan array binding signal (z-score) [8]: 0.221
- glycan array binding signal (z-score) [9]: 1.02
- glycan array binding signal (z-score) (Man(a1-2)Man(a1-3)Man): -0.619
- glycan array binding signal (z-score) [10]: -0.508
- glycan array binding signal (z-score) [11]: -0.32
- glycan array binding signal (z-score) [12]: -0.857
- glycan array binding signal (z-score) [13]: -0.649
- glycan array binding signal (z-score) [14]: 0.879
- glycan array binding signal (z-score) [15]: -0.52
- glycan array binding signal (z-score) (Man(a1-3)[Man(a1-6)]Man): 0.138
- glycan array binding signal (z-score) [16]: -0.59
- glycan array binding signal (z-score) [17]: -0.793
- glycan array binding signal (z-score) [18]: 0.513
- glycan array binding signal (z-score) [19]: -0.283
- glycan array binding signal (z-score) (Man(a1-6)Man): -0.677
- glycan array binding signal (z-score) (Man(b1-4)GlcNAc): -0.212
- glycan array binding signal (z-score) (Neu5Ac(a2-3)Gal): 0.218
- glycan array binding signal (z-score) [20]: -0.678
- glycan array binding signal (z-score) [21]: 0.678
- glycan array binding signal (z-score) [22]: -0.498
- glycan array binding signal (z-score) [23]: -0.636
- glycan array binding signal (z-score) [24]: -0.126
- glycan array binding signal (z-score) [25]: -0.163
- glycan array binding signal (z-score) [26]: 0.017
- glycan array binding signal (z-score) [27]: -0.663
- glycan array binding signal (z-score) [28]: -0.485
- glycan array binding signal (z-score) [29]: -0.538
- glycan array binding signal (z-score) [30]: -0.583
- glycan array binding signal (z-score) [31]: 0.451
- glycan array binding signal (z-score) [32]: 1.08
- glycan array binding signal (z-score) (Neu5Ac(a2-3)Gal(b1-4)Glc): 0.127
- glycan array binding signal (z-score) [33]: 0.109
- glycan array binding signal (z-score) [34]: 0.801
- glycan array binding signal (z-score) [35]: -0.93
- glycan array binding signal (z-score) [36]: 1.57
- glycan array binding signal (z-score) [37]: -0.354
- glycan array binding signal (z-score) [38]: 2.22
- glycan array binding signal (z-score) [39]: -0.027
- glycan array binding signal (z-score) [40]: -0.611
- glycan array binding signal (z-score) [41]: -0.443
- glycan array binding signal (z-score) [42]: 0.414
- glycan array binding signal (z-score) [43]: 1.47
